Results are given in words; binding and its absence hold for the method and conditions named. In cells and extracts the contact can be indirect. Some binding calls cover weakened binding; strength is not graded here.
Biological target: Transcription factor Yin Yang 1 (YY1) (human (endogenous in T24 and 5637)) (UniProt P25490)
Assay: co-IP; lysates (300 uL) of T24 and 5637 cells incubated with 2 ug YY1 or IgG antibody for 30 min at 4°C, then protein A/G beads overnight at 4°C; beads washed three times with PBS; western blotting

By UniProt entry, the sequences of proteins in these tests, tags left out.
UniProt P25490: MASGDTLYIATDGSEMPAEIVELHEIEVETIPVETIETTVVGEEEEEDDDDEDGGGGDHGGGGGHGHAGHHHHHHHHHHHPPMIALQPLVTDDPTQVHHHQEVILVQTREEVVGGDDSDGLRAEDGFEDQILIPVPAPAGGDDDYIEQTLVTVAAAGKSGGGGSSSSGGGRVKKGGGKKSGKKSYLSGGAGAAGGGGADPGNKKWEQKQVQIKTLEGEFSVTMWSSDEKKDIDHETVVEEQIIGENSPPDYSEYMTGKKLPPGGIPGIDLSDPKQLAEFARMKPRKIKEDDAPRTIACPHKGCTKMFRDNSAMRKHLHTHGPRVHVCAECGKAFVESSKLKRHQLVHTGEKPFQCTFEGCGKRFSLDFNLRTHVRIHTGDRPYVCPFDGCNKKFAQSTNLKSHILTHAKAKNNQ

B1: Cartilage acidic protein 1 (CRTAC1) (protein, UniProt Q9NQ79 28-661)
chain: SQRAEPMFTAVTNSVLPPDYDSNPTQLNYGVAVTDVDHDGDFEIVVAGYNGPNLVLKYDRAQKRLVNIAVDERSSPYYALRDRQGNAIGVTACDIDGDGREEIYFLNTNNAFSGVATYTDKLFKFRNNRWEDILSDEVNVARGVASLFAGRSVACVDRKGSGRYSIYIANYAYGNVGPDALIEMDPEASDLSRGILALRDVAAEAGVSKYTGGRGVSVGPILSSSASDIFCDNENGPNFLFHNRGDGTFVDAAASAGVDDPHQHGRGVALADFNRDGKVDIVYGNWNGPHRLYLQMSTHGKVRFRDIASPKFSMPSPVRTVITADFDNDQELEIFFNNIAYRSSSANRLFRVIRREHGDPLIEELNPGDALEPEGRGTGGVVTDFDGDGMLDLILSHGESMAQPLSVFRGNQGFNNNWLRVVPRTRFGAFARGAKVVLYTKKSGAHLRIIDGGSGYLCEMEPVAHFGLGKDEASSVEVTWPDGKMVSRNVASGEMNSVLEILYPRDEDTLQDPAPLECGQGFSQQENGHCMDTNECIQFPFVCPRDKPVCVNTYGSYRCRTNKKCSRGYEPNEDGTACVGTLGQSPGPRPTTPTAAAATAAAAAAAGAATAAPVLVDGDLNLGSVVKESCEPSC
  binding: binds

Reference: paper PMC8809913
